The target of test [1] is CnVA-tagged (StrepII-6xHis, 3xFlag) REEP5 (human) (UniProt Q00765). Briefly: pull-down; nickel-His purification of CnVA-REEP5 from transfected HEK293 cells; immunoblots of the eluate.
In test [2] the target is endogenous mouse REEP5 (mouse (endogenous in mouse tissues)) (UniProt Q60870). Briefly: co-IP; total neonatal mouse ventricular cardiac lysate.
For test [3] the target is unchanged. Briefly: co-IP; adult mouse cardiac (ventricular) microsomes; immunoprecipitation with anti-REEP5, anti-RTN4/Nogo-A/B, anti-ATL3 or anti-CKAP4 antibody, immunoblot. On the technique in general: Immunoblotting shows a protein as a band on a membrane.
The target in a further test is TF-Cub-REEP5 (human) (UniProt Q00765). Briefly: two-hybrid; membrane yeast two-hybrid (MYTH, split ubiquitin); bait TF-Cub-REEP5, prey Ost1p fused at its C-terminus with NubG; growth on SD-WLAH + 10 nM 3-AT.

Chains of the proteins cited; added tags and fusions are not shown.
UniProt Q00765: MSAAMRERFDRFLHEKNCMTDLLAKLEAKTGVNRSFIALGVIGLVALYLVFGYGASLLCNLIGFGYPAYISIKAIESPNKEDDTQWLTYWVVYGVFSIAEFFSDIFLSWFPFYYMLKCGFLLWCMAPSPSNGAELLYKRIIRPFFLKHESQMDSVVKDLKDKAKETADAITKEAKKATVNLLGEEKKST
UniProt Q60870: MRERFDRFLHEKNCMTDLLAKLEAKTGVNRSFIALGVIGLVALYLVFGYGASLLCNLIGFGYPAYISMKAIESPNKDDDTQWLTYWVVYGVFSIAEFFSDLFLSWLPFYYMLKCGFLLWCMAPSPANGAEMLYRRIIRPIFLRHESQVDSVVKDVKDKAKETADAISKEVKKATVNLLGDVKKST

No constants are given. Whether binding was seen depends on the method and setting. For some assays here: Binding seen in cells or lysates may run through a third protein. Some results given as binding are weak or reduced against the parent protein; the word gives no strength.

B1: ATL3 (HEK293) (protein, UniProt Q6DD88 1-541)
chain: MLSPQRVAAAASRGADDAMESSKPGPVQVVLVQKDQHSFELDEKALASILLQDHIRDLDVVVVSVAGAFRKGKSFILDFMLRYLYSQKESGHSNWLGDPEEPLTGFSWRGGSDPETTGIQIWSEVFTVEKPGGKKVAVVLMDTQGAFDSQSTVKDCATIFALSTMTSSVQIYNLSQNIQEDDLQQLQLFTEYGRLAMDEIFQKPFQTLMFLVRDWSFPYEYSYGLQGGMAFLDKRLQVKEHQHEEIQNVRNHIHSCFSDVTCFLLPHPGLQVATSPDFDGKLKDIAGEFKEQLQALIPYVLNPSKLMEKEINGSKVTCRGLLEYFKAYIKIYQGEDLPHPKSMLQATAEANNLAAAASAKDIYYNNMEEVCGGEKPYLSPDILEEKHCEFKQLALDHFKKTKKMGGKDFSFRYQQELEEEIKELYENFCKHNGSKNVFSTFRTPAVLFTGIVALYIASGLTGFIGLEVVAQLFNCMVGLLLIALLTWGYIRYSGQYRELGGAIDFGAAYVLEQASSHIGNSTQATVRDAVVGRPSMDKKAQ
Take B1: the binding result in test [1] is “binds”.

B2: Nogo-B (mouse heart) (protein, UniProt Q99P72-5 1-356)
chain: MEDIDQSSLVSSSADSPPRPPPAFKYQFVTEPEDEEDEEDEEEEEDDEDLEELEVLERKPAAGLSAAPVPPAAAPLLDFSSDSVPPAPRGPLPAAPPTAPERQPSWERSPAASAPSLPPAAAVLPSKLPEDDEPPARPPAPAGASPLAEPAAPPSTPAAPKRRGSGSVVVDLLYWRDIKKTGVVFGASLFLLLSLTVFSIVSVTAYIALALLSVTISFRIYKGVIQAIQKSDEGHPFRAYLESEVAISEELVQKYSNSALGHVNSTIKELRRLFLVDDLVDSLKFAVLMWVFTYVGALFNGLTLLILALISLFSIPVIYERHQAQIDHYLGLANKSVKDAMAKIQAKIPGLKRKAE
Regarding B2, the binding entry in test [2] and in test [3] was “binds” in each case.

B3: Nogo-A (mouse heart) (protein, UniProt Q99P72-2 1-1162)
chain: MEDIDQSSLVSSSADSPPRPPPAFKYQFVTEPEDEEDEEDEEEEEDDEDLEELEVLERKPAAGLSAAPVPPAAAPLLDFSSDSVPPAPRGPLPAAPPTAPERQPSWERSPAASAPSLPPAAAVLPSKLPEDDEPPARPPAPAGASPLAEPAAPPSTPAAPKRRGSGSVDETLFALPAASEPVIPSSAEKIMDLKEQPGNTVSSGQEDFPSVLFETAASLPSLSPLSTVSFKEHGYLGNLSAVASTEGTIEETLNEASRELPERATNPFVNRESAEFSVLEYSEMGSSFNGSPKGESAMLVENTKEEVIVRSKDKEDLVCSAALHNPQESPATLTKVVKEDGVMSPEKTMDIFNEMKMSVVAPVREEYADFKPFEQAWEVKDTYEGSRDVLAARANMESKVDKKCFEDSLEQKGHGKDSESRNENASFPRTPELVKDGSRAYITCDSFSSATESTAANIFPVLEDHTSENKTDEKKIEERKAQIITEKTSPKTSNPFLVAIHDSEADYVTTDNLSKVTEAVVATMPEGLTPDLVQEACESELNEATGTKIAYETKVDLVQTSEAIQESIYPTAQLCPSFEEAEATPSPVLPDIVMEAPLNSLLPSTGASVAQPSASPLEVPSPVSYDGIKLEPENPPPYEEAMSVALKTSDSKEEIKEPESFNAAAQEAEAPYISIACDLIKETKLSTEPSPEFSNYSEIAKFEKSVPDHCELVDDSSPESEPVDLFSDDSIPEVPQTQEEAVMLMKESLTEVSETVTQHKHKERLSASPQEVGKPYLESFQPNLHITKDAASNEIPTLTKKETISLQMEEFNTAIYSNDDLLSSKEDKMKESETFSDSSPIEIIDEFPTFVSAKDDSPKEYTDLEVSNKSEIANVQSGANSLPCSELPCDLSFKNTYPKDEAHVSDEFSKSRSSVSKVPLLLPNVSALESQIEMGNIVKPKVLTKEAEEKLPSDTEKEDRSLTAVLSAELNKTSVVDLLYWRDIKKTGVVFGASLFLLLSLTVFSIVSVTAYIALALLSVTISFRIYKGVIQAIQKSDEGHPFRAYLESEVAISEELVQKYSNSALGHVNSTIKELRRLFLVDDLVDSLKFAVLMWVFTYVGALFNGLTLLILALISLFSIPVIYERHQAQIDHYLGLANKSVKDAMAKIQAKIPGLKRKAE
Consider B3, for which the binding entry in test [2] and in test [3] was “binds” in each case.

B4: Ost1p-NubG (protein, UniProt P41543 23-476)
chain: AQYEPPATWENVDYKRTIDVSNAYISETIEITIKNIASEPATEYFTAFESGIFSKVSFFSAYFTNEATFLNSQLLANSTTAPGDDGESEIRYGIIQFPNAISPQEEVSLVIKSFYNTVGIPYPEHVGMSEEQHLLWETNRLPLSAYDTKKASFTLIGSSSFEEYHPPNDESLLGKANGNSFEFGPWEDIPRFSSNETLAIVYSHNAPLNQVVNLRRDIWLSHWASTIQFEEYYELTNKAAKLSKGFSRLELMKQIQTQNMRQTHFVTVLDMLLPEGATDHYFTDLVGLVSTSHAERDHFFIRPRFPIFGGWNYNFTVGWTNKLSDFLHVSSGSDEKFVASIPILNGPPDTVYDNVELSVFLPEGAEIFDIDSPVPFTNVSIETQKSYFDLNKGHVKLTFSYRNLISQVANGQVLIKYDYPKSSFFKKPLSIACYIFTALMGVFVLKTLNMNVTN
Take B4: in the test with TF-Cub-REEP5 (human), the binding entry was “no binding”.

B5: ATL3 (mouse heart) (protein, UniProt Q91YH5 1-541)
chain: MLSPQRTAAVASRGAGDAMENGKPGPVQVVLVHKEQHSFELEERALASVLLQDHIRDLDVVVVSVAGAFRKGKSFILDFMLRYLYSQKEGGHSDWLGDPEEPLTGFSWRGGSDPETTGIQIWSEVFTVKKPCGKKVAVVLMDTQGAFDSQSTVKDCATIFALSTMTSSVQIYNLSQNIQEDDLQQLQLFTEYGRLAMDEIFQKPFQTLMFLIRDWSFPYEYNYGLQGGMAFLDKRLHVKEHQHEEIQNVRNHIHSCFSDVTCFLLPHPGLQVATSPNFDGKLKDIASEFKEQLQALIPYVLNPSKLMEKEINGSKVTCRGLLEYFKAYIKIYQGEDLPHPKSMLQATAEANNLAAAASAKDIYYNNMEEICGGEKPYLSPDILEEKHLEFKQLALDHFKKIKKMGGKDFSFRYQQELEEEIKELYENFCKHNGSKNVFSTFRTPAVLFTGIAALYIASGFTGFIGLEVVAQLFNCMVGLLLIALLTWGYIRYSGQYRELGGAIDSGAAYVLEQASSHIGNSTQAAVRDAVVGRPPADKKSQ
For the molecule B5, the binding entry in test [2] and in test [3] was “binds” in each case.

These data come from paper PMC7031342.
